## Results of single-concentration screens

By UniProt entry, the sequences of proteins in these tests, tags left out. Residues count along the entry.
UniProt Q8IDJ8, 1-583: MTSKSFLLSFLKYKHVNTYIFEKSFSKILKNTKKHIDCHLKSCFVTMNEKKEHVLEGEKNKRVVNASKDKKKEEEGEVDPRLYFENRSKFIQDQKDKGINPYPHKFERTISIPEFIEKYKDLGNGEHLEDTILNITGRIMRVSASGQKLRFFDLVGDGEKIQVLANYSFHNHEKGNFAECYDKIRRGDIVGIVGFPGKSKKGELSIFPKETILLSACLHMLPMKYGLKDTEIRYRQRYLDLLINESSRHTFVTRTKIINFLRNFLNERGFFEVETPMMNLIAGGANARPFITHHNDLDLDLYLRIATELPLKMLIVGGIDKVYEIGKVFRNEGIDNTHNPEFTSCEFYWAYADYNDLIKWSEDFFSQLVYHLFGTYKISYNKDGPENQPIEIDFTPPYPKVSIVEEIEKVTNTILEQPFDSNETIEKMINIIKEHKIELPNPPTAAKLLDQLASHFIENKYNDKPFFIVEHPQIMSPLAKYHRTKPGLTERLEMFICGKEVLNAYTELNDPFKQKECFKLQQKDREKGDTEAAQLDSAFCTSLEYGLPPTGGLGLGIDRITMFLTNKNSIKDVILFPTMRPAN
UniProt P9WFT3, whole entry: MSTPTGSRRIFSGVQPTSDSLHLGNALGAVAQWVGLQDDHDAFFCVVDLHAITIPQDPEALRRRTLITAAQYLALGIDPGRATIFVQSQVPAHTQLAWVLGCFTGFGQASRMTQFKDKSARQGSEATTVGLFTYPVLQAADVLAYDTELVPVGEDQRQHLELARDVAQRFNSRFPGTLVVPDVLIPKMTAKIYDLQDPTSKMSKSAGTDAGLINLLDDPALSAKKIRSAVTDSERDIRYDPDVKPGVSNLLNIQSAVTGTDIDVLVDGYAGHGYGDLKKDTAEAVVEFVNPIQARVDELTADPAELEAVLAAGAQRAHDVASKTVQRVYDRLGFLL

From ChEMBL document CHEMBL3988442, “University of Dundee, Small-Polar-MMV Screening Library” (2021).

A: 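Enzyme assay of the cytosolic lysyl-tRNA synthetase in 384-well plates, read by luminescence. Target: Lysine-tRNA ligase, Plasmodium falciparum 3D7 (UniProt Q8IDJ8). Tested at 30 µM. Higher reads as stronger inhibition, judged from the few compounds that gave an IC50. About 69,000 compounds were tested under these conditions; 0.071% (about 49) showed 50% or more at least once.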
B: 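Tryptophan-tRNA ligase, Mycobacterium tuberculosis (UniProt P9WFT3). Enzyme assay of tryptophanyl-tRNA synthetase; the read-out is not stated. Concentration: 10 µM. Direction is not recorded; retested compounds ran higher, which suggests that high means inhibition. About 65,000 compounds were tested under these conditions; 0.098% (about 64) showed 50% or more at least once.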
C: 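Cell assay of Leishmania donovani living inside macrophages; the read-out is not stated. Concentration: 30 µM. Direction is inferred from retests: higher values go with stronger inhibition. Size under these conditions: about 69,000 compounds, about 1,000 of them at 50% or above in at least one test.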

Results are given as percent effect. The controls that fix the scale are not given in the record; negative values are as filed. The compounds are a random part of those screened. Two or more numbers in one place are separate tests of the same structure; such repeats can differ widely. A dash means the value is not listed here; it may have been measured.

| compound | A | B | C |
|---|---|---|---|
| `Cc1ccc(O)c(C(=O)NCCCS(=O)(=O)Cc2ccccc2)c1` | 2.074 | -5.635 | 14.45 |
| `CC(C)NC(=O)C1CCc2nnc(C(C)(C)C)n21` (configuration not stated) | 0.4435 | -1.124 | 5.565 |
| `O=C(NCc1ccco1)Nc1ccc2nc(N3CCOCC3)oc2c1` | 0.04996 | -2.571 | -23.15 |
| `COCCN(C(=O)c1nc(-c2ccco2)sc1C)C1CC1` | 1.059 | -1.19 | 20.94 |
| `Cn1cc(C(NCc2ccc(F)cc2)c2cccc(F)c2)cn1` (configuration not stated) | -2.276 | 4.033 | 7.526 |
| `COC1CN(C(=O)CC2CCCC2)CCC(=O)N(C)c2ccccc21` (configuration not stated) | -1.151 | - | -6.925 |
| `[H][C@@]12CCN(C(=O)c3occc3C)C[C@@]1([H])O[C@@H](c1nnc(C3CC3)o1)C2` | - | - | 7.701 |
| `Cc1cc(CN(C)Cc2ncc(-c3ccccc3)o2)no1` | 0.352 | 2.194 | 41.67 |
| `CSCc1noc(CNS(=O)(=O)c2cccc(C(=O)NC3CC3)c2)n1` | 5.33 | -2.667 | -11.04 |
| `CCc1nnc2n1CCN(CC(=O)Nc1cc(C)on1)C2` | -0.2624 | -3.173 | 0.5097 |
| `[H][C@@]12C[C@H](C(=O)N3CCCC3)[C@@]([H])(CN(S(=O)(=O)CC(C)C)C1)O2` | - | - | 22.6 |
| `Cc1cnc(NCc2ccc(S(=O)(=O)N(C)C(C)C)cc2)nc1C` | 5.426 | 1.556 | 2.545 |
| `O=C(NCc1nn(-c2ccccc2)c2c1CCC2)NC1CCOCC1` | 2.001 | -5.304 | 30.96 |
| `Cc1cc(S(=O)(=O)NCC2CNCCOC2)c(C)cc1Cl` (configuration not stated) | 1.553 | -0.6552 | 48.33 |
| `CCOCC(=O)N1C[C@H]2CN(CC3CC3)C(=O)[C@H]2C1` | 8.214 | 3.961 | - |
| `O=C(O)C(F)(F)F.[H][C@@]12COC[C@]1(CNS(C)(=O)=O)CN(Cc1ccc3c(c1)OCO3)C2` | - | - | 8.674 |
| `COc1ccc(S(=O)(=O)NC(=O)c2ccccc2F)cc1OC` | 1.526 | -3.565 | 31.17 |
| `CN1CCCC1c1ccnc(-c2ccccc2)n1` (configuration not stated) | 2.557 | -7.405 | 31.97 |
| `COc1ccccc1CC(NC(=O)N1CCC[C@@H]1CO)C(C)C` (some centres not stated) | 2.843 | -3.398 | 9.914 |
| `[H][C@]12CN(CCCSC)CC[C@@]1(O)CCN(c1ncccn1)C2` | - | - | 29.94 |
| `COC1CCN(c2ccc(F)cc2CN(C)C(C)C(N)=O)CC1` (configuration not stated) | -4.976 | -3.065 | -11.61 |
| `Cc1ccc(-c2csc(N)c2C#N)cc1` | 2.904 | 0.201 | 32.54 |
| `CCCSc1nc(N)c(NC(=O)c2ccc(OC)c(OC)c2)c(=O)[nH]1` | 0.8035 | -5.395 | 4.733 and -8.336 |
| `COC(=O)c1cccn1C1CCN(C(=O)c2cc(C)ccc2O)CC1` | -3.489 | -4.396 | 6.557 |
| `Cc1cc(C(=O)NCCCn2nccc2C2CC2)c(=O)[nH]c1C` | 7.442 | -0.7852 | 2.706 |
| `O=C(NCc1nncn1C1CCCCC1)C1COc2ccccc2C1` (configuration not stated) | 4.992 | 3.661 | 16.12 |
| `Cc1csc2c(C3CCCN(C(=O)CCn4ccnc4)C3)nc(C)n12` (configuration not stated) | -1.451 | 6.554 | 22.15 |
| `CCS(=O)(=O)N1CCOC2(COCCN(C(C)=O)C2)C1` (configuration not stated) | -1.728 | 1.402 | -0.01349 |
| `[H][C@@]12CCN(Cc3ccncc3)C[C@@]1([H])O[C@@H](c1nc(C3CC3)cs1)C2` | - | - | 11.96 |
| `Cc1cnn(C2CCCN(C(=O)CCCNc3ncccn3)C2)c1` (configuration not stated) | 9.729 | -1.174 | 21.39 |
| `Cc1cccc(S(=O)(=O)NCc2cccc(CS(C)(=O)=O)c2)c1` | -3.936 | 3.659 | 3.156 |
| `COc1ccc(C(N)=O)cc1NCc1nc(-c2cccs2)oc1C` | 5.608 | 5.913 | -22.46 |
| `O=C(CN1CCCC1Cn1cncn1)NCCc1c(F)cccc1F` (configuration not stated) | -5.53 | 4.971 | 7.083 |
| `Cc1cccc(NC(=O)c2sc(C)nc2C)n1` | -1.082 | 0.5869 | 2.289 |
| `CCCn1nc(C(=O)N(C)Cc2cnn(C)c2)ccc1=O` | 2.696 | -0.2945 | 45.15 |
| `COc1cc(CN(C)C(=O)NCc2cccnc2OC)ccc1SC` | 4.033 | -7.669 | 8.765 |
| `COc1ccc(N2CCN(C(=O)c3cc(=O)c(OC)c[nH]3)CC2)cc1` | 4.327 | 2.925 | -5.286 |
| `COc1cc(CN2CCC3(CC(Nc4ccncn4)C3)C2)cc(OC)c1` (configuration not stated) | 2.116 | - | 3.623 and 10.34 |
| `Cc1c(C(=O)O)sc2nc(Cc3ccccc3)nc(N)c12` | 0.9616 | -4.601 | -33.9 |
| `O=C1CO[C@H](c2ccc(NS(=O)(=O)c3ccccc3)cc2)[C@@H](CO)N1` | 0.4211 | 6.331 | -18.04 |
| `Cc1cc(C)c(CNC(=O)N2CCC(N3CCCCC3)CC2)c(=O)[nH]1` | 4.249 | 0.5482 | 20.34 |
| `CCC1=N[C@@]2(CC[C@@H]3CN(C(=O)NCC(C)C)C[C@@H]32)C(=O)N1CC1CC1` | 7.603 | 3.067 | - |
| `CCc1cc(NC2CCN(Cc3ccccc3F)CC2)n2nccc2n1` | 3.154 | -2.082 | 32.46 |
| `CCC1CCC(CNC(=O)c2c[nH]c(=O)c(Cl)c2)CC1` (configuration not stated) | 67.59 | -0.1805 | 18.92 |
| `COCCN1CC(=O)c2sc(NC(C)C)nc2C1` | 2.107 | - | 11.92 and 4.772 |
| `Cc1ccc(OC2(C(=O)O)CCN(C/C=C/c3ccco3)CC2)c(C)n1` | 0.7453 | 1.319 | 26.55 |
| `OCCN(Cc1ccno1)Cc1cc(Br)ccc1F` | 1.966 | -5.147 | 8.441 |
| `Cc1cc(C(O)CCNC(=O)COc2ccccc2F)c(C)o1` (configuration not stated) | -2.162 | 2.66 | 9.618 and 15.17 |
| `Cc1cc(C(=O)O)c2c(Br)cccc2n1` | 1.993 | 0.8909 | 25.53 |
| `COCCc1noc(CN(C)C2CCCN(c3ccc(C)nn3)C2)n1` (configuration not stated) | -3.76 | 0.7105 | 7.869 |
| `Cc1cccc(-c2ccc(C(=O)N3CCSCC3)c(=O)[nH]2)c1` | 5.086 | 1.214 | 12.1 |
| `Cc1ccc(C(=O)N(C)Cc2ccc(Br)s2)c(=O)[nH]1` | 6.803 | 2.641 | 40.09 |
| `CNc1ncc(CN(C)Cc2cc3n(n2)CCNC3)cn1` | 2.855 | -0.8258 | 37.13 |
| `O=C(O)C(F)(F)F.O=C(O)C(F)(F)F.[H][C@]12CCN(Cc3cccs3)[C@@]1([H])CC[C@@H](COc1cccnc1)O2` | - | - | 29.64 |
| `Cc1ccccc1-c1noc(C2CC(C(C)C)=NO2)n1` (configuration not stated) | 5.494 | -2.477 | 41.7 |
| `N#CC1CCCN(c2nc(-c3ccccc3)nc3c2CCNCC3)C1` (configuration not stated) | 1.612 | 2.22 | 83.36 |
| `Cn1cc(N2CCC(Nc3ccc4nccnc4n3)C2=O)cn1` (configuration not stated) | 2.632 | -4.237 | 15.12 |
| `Cn1cc(N2CC3(COCCN(Cc4ccsc4)C3)OCC2=O)cn1.O=C(O)C(F)(F)F` (configuration not stated) | - | - | -17.99 |
| `COCCS(=O)(=O)N1CCN(c2cccc(O)c2)CC1` | 2.835 | 1.876 | 22.06 |
| `Clc1ccc2cccnc2c1CN1CCCCC1Cn1cncn1` (configuration not stated) | -0.4774 | -4.451 | 13.05 |
| `Cc1ccc(C(=O)N2CCN(Cc3ccccc3)CC2)n1C` | 0.2482 | 2.443 | 15.03 |
| `Cc1c(COc2ccccc2)cccc1NC(=O)N1CC[C@H](O)C1` | 3.143 | 0.3799 | -0.7876 |
| `CC(C)c1nnc2n1CCN(Cc1ccc3c(c1)OCCO3)C2` | 10.14 | -0.3564 | 21.87 |
| `O=C1CCC(CCC(=O)N2CCCC2c2nccs2)=NN1` (configuration not stated) | -0.8174 | 12.18 | 9.246 |
| `CNC(=O)C1(c2cnccn2)CCCN1C(=O)c1ccn(C)n1` (configuration not stated) | -2.664 | -3.595 | -1.667 |
| `CCS(=O)(=O)c1nccn1-c1cccc(F)c1` | -0.02399 | -1.156 | 5.061 |
| `CC[C@H](C)[C@H](N)C(=O)N1CC(=O)c2sc(Nc3ccc(F)cc3)nc2C1` | 3.584 | - | 3.338 and 15.21 |
| `COc1cccc(S(=O)(=O)N2CCN(C)[C@@H]3CS(=O)(=O)C[C@@H]32)c1` | 5.282 | -3.704 | - |
| `CC(C)=CCN1C[C@H]2CC[C@@H]1CN(Cc1cc(=O)[nH]c(=O)[nH]1)C2` | 4.106 | -0.677 | - |
| `O=C1CNc2ncnc(N3CCN(Cc4cccc(F)c4)CC3)c2N1` | 3.653 | -3.565 | 5.591 |
| `Cc1ccc(C)c(NC(=O)c2cc(S(=O)(=O)N3CCSCC3)c[nH]2)c1` | 5.924 | 5.286 | 34.39 |
| `O=C(O)C(F)(F)F.[H][C@@]12CCCO[C@]1([H])[C@@H](OCC)CN2CC1CC1` | - | - | 13.63 |
| `Cc1ccc(OCCC(=O)NCCCN2CCCC2=O)c(C)c1` | -2.016 | -2.062 | -10.92 |
| `CCOCC(O)CN1CCN(C(=O)C(C)(C)CC)CC1` (configuration not stated) | -0.3599 | 6.215 | -4.338 |

Some entries from above, unchanged:

[H][C@]12CN(CCCSC)CC[C@@]1(O)CCN(c1ncccn1)C2 gave C: 29.94%.
CC(C)=CCN1C[C@H]2CC[C@@H]1CN(Cc1cc(=O)[nH]c(=O)[nH]1)C2 gave A: 4.106%; B: -0.677%.
O=C1CO[C@H](c2ccc(NS(=O)(=O)c3ccccc3)cc2)[C@@H](CO)N1 gave A: 0.4211%; B: 6.331%; C: -18.04%.
CSCc1noc(CNS(=O)(=O)c2cccc(C(=O)NC3CC3)c2)n1 gave A: 5.33%; B: -2.667%; C: -11.04%.
Cc1c(C(=O)O)sc2nc(Cc3ccccc3)nc(N)c12 gave A: 0.9616%; B: -4.601%; C: -33.9%.
CCC1=N[C@@]2(CC[C@@H]3CN(C(=O)NCC(C)C)C[C@@H]32)C(=O)N1CC1CC1 gave A: 7.603%; B: 3.067%.
Cc1ccc(C)c(NC(=O)c2cc(S(=O)(=O)N3CCSCC3)c[nH]2)c1 gave A: 5.924%; B: 5.286%; C: 34.39%.